Laboratory results published in patent US20230114811A1, “GLYCOSYLTRANSFERASES, POLYNUCLEOTIDES ENCODING THESE AND METHODS OF USE” (THE NEW ZEALAND INSTITUTE FOR PLANT AND FOOD RESEARCH …, priority 2020, published 2023).
At least one compound was matched to its structure with a doubt left.

Tested on: recombinant PGT2 cloned from M. toringoides
Experiment: Substrate specificity of recombinant PGT2, UDP-glucoside as sugar donor, products determined by LC-MS/MS
Type: biochemical
Details: amount of product formed relative to conversion of phloretin to trilobatin set at 100%
Description: The products of each reaction were determined by LC-MS/MS. […] Quercetin-3-O-glucoside was detected as a reaction product using quercetin (FIG. 8A-F) with a lower conversion rate of 9.1% (Table 7).

Row | Structure (SMILES) | Conversion (%)
1 | Oc1cc(O)c2cc(O)c(-c3ccc(O)c(O)c3)[o+]c2c1 [cyanidin] | 0
2 | O=C(CCc1ccc(O)cc1)c1c(O)cc(O)cc1O[C@@H]1O[C@H](CO)[C@@H](O)[C@H](O)[C@H]1O [phloridzin, phloretin-2′-O-glucoside] | 0
